The whole screen tested about 360,000 compounds, of which about 7,500 (2.1%) were called active. The inconclusive results got no clear call from the source; some entries with a clear call stand among them for comparison. Calls come from the whole dose curve; as a rule, active = well fitted inhibition curve with a large enough effect; inconclusive = small, poorly fitted or top-dose-only effect, or effect the other way; inactive = flat fitted curve, though single readings scatter. A potency beside an inconclusive call is a rough fit, not a confirmed value.
Test: Nrf2 qHTS screen for inhibitors; note: nearly all actives have a fitted effect of over 60% in size
Conditions: A549 ARE-Fluc reporter, luciferase luminescence, 18-24 h; activity change, negative = inhibition: at 46 µM (top of the series)
How it was run: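 In this cell-based qHTS, ARE-driven firefly luciferase in A549 cells reports Nrf2 activity; the luminescent signal after BugLite lysis is the measured value, with a prior CellTiter-Fluor read for cell health.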
% is set by controls: 0 for no effect and ±100 for the full control effect; potency is the fitted concentration of half-maximal effect.

| SMILES | Potency | activity change, negative = inhibition |
| --- | --- | --- |
| COC(=O)[C@H](C)NC(=O)Nc1ccc(OC)c(OC)c1 | inconclusive: 16.4 µM [falling, partial curve, poor fit] | – |
| COc1ccc(NC(=O)CC2C(=O)N(c3ccccc3)C(=O)N2CCC2=CCCCC2)cc1 (stereo not given) | inconclusive: 23.1 µM [activator, single point] | – |
| CCC1N=C(SC)NC(C)=C1C(=O)c1ccccc1 (stereo not given) | – | inactive: -5.52% |
| O=C(Nc1ccc(Cn2cccn2)cc1)c1ccc(COc2ccccc2Br)cc1 | active: 9.2 µM | – |
| O=c1nc(N/N=C/c2c[nH]c3ccccc23)cn[nH]1 | inconclusive: 1.64 µM [activator, full curve] | – |
| O=C(CCN1C(=O)/C(=C/c2ccccc2)SC1=S)N1CCCCCC1 | active: 20.6 µM | – |
| O=C(CSc1nnc(CNC(=O)C23CC4CC(CC(C4)C2)C3)n1-c1ccc(F)cc1)Nc1ccc(F)cc1 | – | inactive: 1.15% |
| O=C(Nc1ccc(C(=O)N2CCN(c3ccc(Cl)cc3)CC2)cc1)C1=CSCCO1 | inconclusive: 5.17 µM [falling, partial curve, poor fit] | – |
| COc1ccc(S(=O)(=O)N2CCCOC2CNC(=O)C(=O)NCc2ccccn2)cc1 (stereo not given) | – | inactive: 13.1% |
| COc1ccc(-n2ncc(S(=O)(=O)c3ccccc3)c2-c2ccc(Cl)cc2)cc1 | inconclusive: 20.6 µM [falling, single point] | – |
| CC(C)c1ccc(C(O)Cc2nc3ccccc3n2C)cc1 (stereo not given) | inconclusive: 1.84 µM [activator, full curve] | – |
| O=C(Nc1ccc2oc(=O)ccc2c1)c1cc2ccccc2o1 | – | inactive: 4.95% |
| CC(C)CCCC(C)NC(=O)c1cc(S(=O)(=O)N2CCCCC2)ccc1N1CCOCC1 (stereo not given) | – | inactive: 11.9% |
| Nc1nc(-c2ccccc2)c(CCCOc2ccc(NC(=O)CBr)cc2)c(=O)[nH]1 | – | inactive: -2.7% |
| COc1cc(NC(=O)C2CCN(S(=O)(=O)c3c(C)noc3/C=C/c3cccs3)CC2)cc(OC)c1 | – | inactive: 7.09% |
| O=C(N/N=C/C(Br)=C/c1ccccc1)C(O)c1ccccc1 (stereo not given) | inconclusive: 16.4 µM [activator, single point] | – |
| COCCOC(=O)C1=C(C)OC(N)=C(C#N)C1c1cc2cccc(C)c2nc1Cl (stereo not given) | inconclusive: 29.1 µM [falling, partial curve, poor fit] | – |
| COc1cccc(/C=N/NC(=O)Cn2cnc3c2c(=O)n(C)c(=O)n3C)c1 | – | inactive: -3.48% |
| Cc1ccc(-c2noc(C3CCCN(C(=O)c4c(F)cccc4F)C3)n2)cc1 (stereo not given) | inconclusive: 20.6 µM [falling, single point] | – |
| COc1ccc(C2=C/C(=C\c3ccccc3OC(C)=O)C(=O)O2)cc1 | inconclusive: 13 µM [activator, partial curve, poor fit] | – |
| CCOc1ccccc1-c1noc(CCCC(=O)Nc2cccc(C(F)(F)F)c2)n1 | inconclusive: 29.1 µM [falling, single point] | – |
| Nc1ccc(-c2nc3ccccc3o2)cc1 | inconclusive: 8.2 µM [activator, partial curve, poor fit] | – |

| SMILES | Potency | activity change, negative = inhibition |
| --- | --- | --- |
| COc1ccc(NC(=O)CCSc2ccc(C)cc2)cc1S(=O)(=O)Nc1ccccc1Cl | active: 23.1 µM | – |
| O=c1cnnc(Nc2ccc(Cl)c(C(F)(F)F)c2)[nH]1 | inconclusive: 5.8 µM [activator, full curve] | – |
| CC1CN(C(=O)c2cccc(COc3ccc(Br)cc3)c2)CC(C)O1 (stereo not given) | inconclusive: 1.64 µM [activator, full curve] | – |
| COc1ccc(/C=N\NC(=O)c2ccccc2OC)cc1COc1c(F)c(F)c(F)c(F)c1F | inconclusive: 25.9 µM [falling, single point] | – |
| CC(C)CCNC(=O)Cc1ccccc1[N+](=O)[O-] | inconclusive: 6.51 µM [activator, single point] | – |
| CCCCc1cc(=O)oc2cc(OCC(=O)Nc3ccccn3)ccc12 | – | inactive: -9.12% |
| CC(C)C1N(S(=O)(=O)c2ccccc2)CCN1S(=O)(=O)c1ccccc1 | inconclusive: 16.4 µM [falling, partial curve, poor fit] | – |
| O=C1/C(=C\Nc2ccccc2)CCN1c1ncccn1 | inconclusive: 18.4 µM [activator, single point] | – |
| CCCCNC1=CC(=O)C(NCCCC)=CC1=O | – | inactive: 0.148% |
| COc1ccc(Nc2nc(-c3ccncc3)nc3ccccc23)cc1 | inconclusive: 25.9 µM [falling, single point] | – |
| Cc1cccc(C(=O)Nc2cccc(OCc3cc(=O)n4cc(C)sc4n3)c2)c1 | inconclusive: 0.231 µM [falling, full curve, poor fit] | – |
| Cc1ccc(C(C)C)c(OCC(=O)NCC2(N3CCOCC3)CCCCC2)c1 | inconclusive: 16.4 µM [falling, partial curve, poor fit] | – |
| Cc1ccc(NS(=O)(=O)c2ccc3c(c2)CCN(C(=O)C(F)(F)F)C3)cc1C | inconclusive: 23.1 µM [falling, single point] | – |
| Cc1ccc(-c2[nH]ncc2CNCc2ccc(CN(C)C)cc2)cc1 | – | inactive: 4.73% |
| CCOC(=O)N1CCN(C(=O)CSc2nnc(CNC(=O)c3c(F)cccc3Cl)o2)CC1 | inconclusive: 8.2 µM [falling, partial curve] | – |
| Cn1c(CN2CCOCC2)nc2cc(NC(=O)COc3ccccc3)ccc21 | inconclusive: 5.8 µM [falling, partial curve, poor fit] | – |
| CCc1nn(CC(=O)NCCCN2CCN(C)CC2)c(=O)c2cc3sccc3n12 | – | inactive: -0.0667% |
| O=C(CCNS(=O)(=O)c1ccc(OC(F)(F)F)cc1)N1CCN(C/C=C/c2ccccc2)CC1 | inconclusive: 16.4 µM [falling, single point] | – |
| CN(C)S(=O)(=O)c1ccc(N2CCCC2)c(C(=O)Nc2ccccc2OC(F)F)c1 | inconclusive: 16.4 µM [falling, partial curve, poor fit] | – |
| Cc1ccc(-n2cc3c(c2-c2ccccc2Br)c(=O)n(C)c(=O)n3C)cc1N | inconclusive: 23.1 µM [falling, single point] | – |
| Cc1ccc(C(=O)NCC(=O)OCc2cc(=O)n3c(C)csc3n2)cc1 | inconclusive: 0.116 µM [falling, full curve, poor fit] | – |
| O=C(NCCc1ccccc1)c1cccc(S(=O)(=O)N2CCCCC2)c1 | inconclusive: 29.1 µM [falling, partial curve, poor fit] | – |

2 records picked at random from the list so far:

| SMILES | Potency | activity change, negative = inhibition |
| --- | --- | --- |
| CC(C)CCNC(=O)Cc1ccccc1[N+](=O)[O-] | inconclusive: 6.51 µM [activator, single point] | – |
| Cc1ccc(NS(=O)(=O)c2ccc3c(c2)CCN(C(=O)C(F)(F)F)C3)cc1C | inconclusive: 23.1 µM [falling, single point] | – |

(cont.)

| SMILES | Potency | activity change, negative = inhibition |
| --- | --- | --- |
| CCOC(=O)CCN(c1ccccc1)S(=O)(=O)c1cc(-c2cc(C)no2)ccc1C | inconclusive: 23.1 µM [falling, partial curve, poor fit] | – |
| CCOc1cc(/C=N/Nc2nc(Nc3ccccc3)nc(N3CCCCC3)n2)ccc1OCC(=O)O | inconclusive: 29.1 µM [activator, single point] | – |
| O=C(Cc1ccc(Br)cc1)N1CCc2ccccc2C1 | inconclusive: 0.0146 µM [falling, full curve] | – |
| COc1ccc(-c2nc3cnccn3c2NCc2ccccc2)cc1SC1CCCCC1 | inconclusive: 20.6 µM [falling, single point] | – |
| O=C(NCC(c1cccnc1)N1CCc2ccccc21)c1ccc(F)c(F)c1 (stereo not given) | inconclusive: 23.1 µM [falling, single point] | – |
| CC(=O)N1CCc2c(sc3c2c(=O)n(-c2ccccc2C)c(=O)n3CC(=O)c2ccccc2)C1 | inconclusive: 1.84 µM [activator, single point] | – |
| O=C(NCCOc1ccccc1Cl)C(=O)NCCOc1ccccc1Cl | inconclusive: 8.2 µM [activator, partial curve, poor fit] | – |
| COc1ccc(/C=N/O)cc1COc1ccc(NC(C)=O)cc1 | inconclusive: 20.6 µM [activator, partial curve, poor fit] | – |
| CCOC(=O)N1CCc2c(sc(NC(=O)Cc3ccccc3)c2C(=O)c2ccc(OC)cc2)C1 | inconclusive: 25.9 µM [falling, single point] | – |
| COc1ccc(C2CC(c3cccs3)=NN2C(=O)CCl)cc1OC (stereo not given) | inconclusive: 29.1 µM [falling, single point] | – |
| CCN1CCN(CCCNC(=O)Cn2c(-c3cccs3)cc3ccccc32)CC1 | – | inactive: -18.4% |
| Cc1ccc2c(=O)cc(C(=O)N(Cc3ccccc3Cl)C3CCS(=O)(=O)C3)oc2c1 (stereo not given) | inconclusive: 0.58 µM [activator, partial curve, poor fit] | – |
| CC(=O)Nc1ccc(S(=O)(=O)Nc2ccc(N3CCCCC3)cc2)cc1 | inconclusive: 29.1 µM [falling, single point] | – |
| Cc1ccc2[nH]c(C(=O)N/N=C/c3ccccc3O)c(C)c2c1 | inconclusive: 29.1 µM [falling, single point] | – |
| Cc1csc(SCCN2C(=O)c3ccccc3C2=O)n1 | inconclusive: 2.31 µM [activator, full curve] | – |
| O=C(CN1CCOCC1)Nc1ccccc1F | – | inactive: 2.75% |
| COc1ccc(NC(=O)C2CCCN(C(=O)c3cnn(-c4ccccc4)c3-n3cccc3)C2)cc1 (stereo not given) | inconclusive: 23.1 µM [falling, single point] | – |
| COc1ccc(-c2noc(C3CCCN(C(=O)c4ccccc4)C3)n2)cc1 (stereo not given) | inconclusive: 23.1 µM [falling, single point] | – |
| COc1ccc(Nc2c3c(nc4ccccc24)CCC3)c(OC)c1 | inconclusive: 29.1 µM [falling, single point] | – |
| COc1ccc(NS(=O)(=O)c2cccc(NC(=O)COc3ccccc3[N+](=O)[O-])c2)cc1 | inconclusive: 18.4 µM [falling, single point] | – |
| Cc1ccc(C)c(S(=O)(=O)Nc2cc3c4c(c2)CCN4C(=O)CC3)c1 | inconclusive: 7.31 µM [falling, partial curve, poor fit] | – |
